Laboratory results: US9968602B2, “Modulation of cell fates and activities by phthalazinediones” (Bach Pharma, Inc., priority 2002, dated 2018)
At least one compound was matched to its structure with a doubt left.

Test system: ATM-deficient mice
Assay: Thymic tumor formation and premature degeneration in ATM-deficient mice
Type: in vivo
Details: early pretreatment, ATM deficiency in mice
Description: In regulatory gene-dependent syndromes of premature aging, including ataxia telangiectasia, Down syndrome, trichothiodystrophy, Bloom's disease, p53 over-activity (De Boer et al., Science 296: 1276-1281, 2002; Tyner et al., Nature 415: 45-50, 2002), in which life and death of specific cell types are aberrant, appropriate treatments in vitro and in vivo with thiol redox modulators have been partially successful.
Other thiol redox modulators, such as N-acetyl cysteine and dehydrolipoic acid, also delay the premature degeneration of cells and the thymomas. Thiol redox modulators also correct the delayed differentiation and excessive production of DNA in ATM-deficient lymphoid cells (Yan et al., FASEB J. 15: 1132-1138, 2001; Lynn et al., unpublished). However, in the ATM-deficient mice, treatment was fully successful only if the thiol redox modulators were applied early, before two weeks of age and before tumor development.
Whether amino phthalazinediones with other thiol redox modulators, which suppress growth of non-transformed ATM-deficient cells in vitro, can fully suppress tumors in vivo, without toxicity, has not been rigorously evaluated. Cross-linking redox modulators such as diamide, menadione, and oxidized phthalazines are known to stop cell growth, activate caspases, and initiate apoptosis in some tumor cells (Pias and Aw, FASEB J. 16: 781-790, 2002).

C[C@@H]1C[C@H]2[C@@H]3CCC4=CC(=O)C=C[C@]4(C)[C@@]3(F)[C@@H](O)C[C@]2(C)[C@@]1(O)C(=O)CO [Dexamethasone, dexamethasone] was tested, and the “excessive proliferation and development of the fatal thymic cancer” value was “completely prevents”.
